Results: the supplement of paper PMC10849652
Some of the results follow.

Sequences of proteins named here, by UniProt entry; tags and fusion partners are left off. A change or cut given only in a name is not applied to a line headed by its entry.
UniProt O14933: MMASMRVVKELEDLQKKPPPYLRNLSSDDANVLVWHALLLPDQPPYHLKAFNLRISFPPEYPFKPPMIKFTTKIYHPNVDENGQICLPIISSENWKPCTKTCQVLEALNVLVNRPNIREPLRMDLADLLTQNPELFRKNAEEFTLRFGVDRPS
UniProt O95071: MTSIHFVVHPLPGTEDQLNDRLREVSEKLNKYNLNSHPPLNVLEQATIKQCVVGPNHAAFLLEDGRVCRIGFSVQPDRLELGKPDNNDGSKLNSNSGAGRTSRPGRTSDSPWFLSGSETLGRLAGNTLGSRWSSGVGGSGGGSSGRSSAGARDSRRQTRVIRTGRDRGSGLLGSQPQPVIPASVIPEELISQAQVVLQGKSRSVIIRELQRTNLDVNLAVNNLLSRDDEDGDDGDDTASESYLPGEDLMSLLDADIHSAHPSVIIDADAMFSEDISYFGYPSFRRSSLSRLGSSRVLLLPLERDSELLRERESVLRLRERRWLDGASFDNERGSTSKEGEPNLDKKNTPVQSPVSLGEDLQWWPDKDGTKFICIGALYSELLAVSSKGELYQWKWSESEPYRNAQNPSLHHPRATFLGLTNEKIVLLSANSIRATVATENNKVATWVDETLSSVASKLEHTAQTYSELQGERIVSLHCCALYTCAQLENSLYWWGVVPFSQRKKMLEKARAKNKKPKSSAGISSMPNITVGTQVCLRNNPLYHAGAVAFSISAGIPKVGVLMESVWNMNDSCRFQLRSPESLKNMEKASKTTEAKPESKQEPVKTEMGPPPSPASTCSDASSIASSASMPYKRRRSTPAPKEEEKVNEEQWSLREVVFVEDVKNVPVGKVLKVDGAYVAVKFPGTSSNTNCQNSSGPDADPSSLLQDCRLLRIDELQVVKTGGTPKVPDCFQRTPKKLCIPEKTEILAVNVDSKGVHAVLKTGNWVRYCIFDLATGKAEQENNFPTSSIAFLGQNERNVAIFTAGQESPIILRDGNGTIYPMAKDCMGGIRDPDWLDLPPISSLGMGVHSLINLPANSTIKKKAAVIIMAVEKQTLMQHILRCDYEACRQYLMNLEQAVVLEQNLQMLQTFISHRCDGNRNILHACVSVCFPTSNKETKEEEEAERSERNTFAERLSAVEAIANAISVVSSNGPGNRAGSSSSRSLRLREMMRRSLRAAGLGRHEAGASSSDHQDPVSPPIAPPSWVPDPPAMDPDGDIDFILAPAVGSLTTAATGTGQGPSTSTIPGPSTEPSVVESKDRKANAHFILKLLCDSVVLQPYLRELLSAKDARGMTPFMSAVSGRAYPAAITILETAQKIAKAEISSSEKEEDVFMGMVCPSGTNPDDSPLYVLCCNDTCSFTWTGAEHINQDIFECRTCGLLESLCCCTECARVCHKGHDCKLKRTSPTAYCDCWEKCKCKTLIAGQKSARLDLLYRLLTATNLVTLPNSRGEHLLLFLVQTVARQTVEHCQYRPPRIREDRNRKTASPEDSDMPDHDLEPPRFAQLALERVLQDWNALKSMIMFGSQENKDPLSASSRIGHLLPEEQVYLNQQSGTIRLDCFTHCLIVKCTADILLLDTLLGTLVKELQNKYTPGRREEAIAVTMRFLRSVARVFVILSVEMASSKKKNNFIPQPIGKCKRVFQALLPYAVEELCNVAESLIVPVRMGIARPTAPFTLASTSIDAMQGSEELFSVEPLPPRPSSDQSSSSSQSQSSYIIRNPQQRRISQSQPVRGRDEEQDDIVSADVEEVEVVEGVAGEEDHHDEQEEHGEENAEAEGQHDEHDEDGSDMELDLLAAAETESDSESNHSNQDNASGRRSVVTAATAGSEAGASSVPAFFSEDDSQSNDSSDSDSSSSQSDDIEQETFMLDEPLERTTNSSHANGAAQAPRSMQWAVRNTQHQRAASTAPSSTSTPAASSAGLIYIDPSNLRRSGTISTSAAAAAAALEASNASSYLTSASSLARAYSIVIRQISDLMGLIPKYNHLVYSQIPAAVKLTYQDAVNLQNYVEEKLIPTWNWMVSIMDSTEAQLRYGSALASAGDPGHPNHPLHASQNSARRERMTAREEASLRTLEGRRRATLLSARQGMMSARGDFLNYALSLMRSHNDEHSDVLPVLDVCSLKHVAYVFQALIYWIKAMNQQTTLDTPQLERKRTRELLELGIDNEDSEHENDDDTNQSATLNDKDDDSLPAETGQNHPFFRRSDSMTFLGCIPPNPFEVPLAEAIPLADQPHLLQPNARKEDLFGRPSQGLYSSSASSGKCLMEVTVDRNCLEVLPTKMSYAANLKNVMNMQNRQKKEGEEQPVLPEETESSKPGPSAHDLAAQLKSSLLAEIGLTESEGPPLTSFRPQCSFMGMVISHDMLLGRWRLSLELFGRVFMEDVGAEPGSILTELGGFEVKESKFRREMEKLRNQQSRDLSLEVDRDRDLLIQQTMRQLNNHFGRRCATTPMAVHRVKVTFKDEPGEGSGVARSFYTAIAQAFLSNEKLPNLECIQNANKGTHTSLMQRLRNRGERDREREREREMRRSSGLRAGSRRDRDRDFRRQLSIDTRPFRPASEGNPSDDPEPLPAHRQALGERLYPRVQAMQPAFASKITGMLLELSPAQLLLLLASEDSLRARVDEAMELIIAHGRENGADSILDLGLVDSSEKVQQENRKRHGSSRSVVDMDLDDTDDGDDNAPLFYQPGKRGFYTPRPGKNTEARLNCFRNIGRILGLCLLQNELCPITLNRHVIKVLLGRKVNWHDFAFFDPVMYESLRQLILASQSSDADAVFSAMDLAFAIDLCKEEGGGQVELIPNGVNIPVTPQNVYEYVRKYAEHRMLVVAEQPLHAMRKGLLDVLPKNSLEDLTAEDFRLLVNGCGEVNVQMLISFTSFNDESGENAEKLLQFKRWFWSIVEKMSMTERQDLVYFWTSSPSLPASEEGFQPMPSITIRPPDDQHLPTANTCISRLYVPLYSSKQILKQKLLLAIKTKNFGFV
UniProt Q8IWV7: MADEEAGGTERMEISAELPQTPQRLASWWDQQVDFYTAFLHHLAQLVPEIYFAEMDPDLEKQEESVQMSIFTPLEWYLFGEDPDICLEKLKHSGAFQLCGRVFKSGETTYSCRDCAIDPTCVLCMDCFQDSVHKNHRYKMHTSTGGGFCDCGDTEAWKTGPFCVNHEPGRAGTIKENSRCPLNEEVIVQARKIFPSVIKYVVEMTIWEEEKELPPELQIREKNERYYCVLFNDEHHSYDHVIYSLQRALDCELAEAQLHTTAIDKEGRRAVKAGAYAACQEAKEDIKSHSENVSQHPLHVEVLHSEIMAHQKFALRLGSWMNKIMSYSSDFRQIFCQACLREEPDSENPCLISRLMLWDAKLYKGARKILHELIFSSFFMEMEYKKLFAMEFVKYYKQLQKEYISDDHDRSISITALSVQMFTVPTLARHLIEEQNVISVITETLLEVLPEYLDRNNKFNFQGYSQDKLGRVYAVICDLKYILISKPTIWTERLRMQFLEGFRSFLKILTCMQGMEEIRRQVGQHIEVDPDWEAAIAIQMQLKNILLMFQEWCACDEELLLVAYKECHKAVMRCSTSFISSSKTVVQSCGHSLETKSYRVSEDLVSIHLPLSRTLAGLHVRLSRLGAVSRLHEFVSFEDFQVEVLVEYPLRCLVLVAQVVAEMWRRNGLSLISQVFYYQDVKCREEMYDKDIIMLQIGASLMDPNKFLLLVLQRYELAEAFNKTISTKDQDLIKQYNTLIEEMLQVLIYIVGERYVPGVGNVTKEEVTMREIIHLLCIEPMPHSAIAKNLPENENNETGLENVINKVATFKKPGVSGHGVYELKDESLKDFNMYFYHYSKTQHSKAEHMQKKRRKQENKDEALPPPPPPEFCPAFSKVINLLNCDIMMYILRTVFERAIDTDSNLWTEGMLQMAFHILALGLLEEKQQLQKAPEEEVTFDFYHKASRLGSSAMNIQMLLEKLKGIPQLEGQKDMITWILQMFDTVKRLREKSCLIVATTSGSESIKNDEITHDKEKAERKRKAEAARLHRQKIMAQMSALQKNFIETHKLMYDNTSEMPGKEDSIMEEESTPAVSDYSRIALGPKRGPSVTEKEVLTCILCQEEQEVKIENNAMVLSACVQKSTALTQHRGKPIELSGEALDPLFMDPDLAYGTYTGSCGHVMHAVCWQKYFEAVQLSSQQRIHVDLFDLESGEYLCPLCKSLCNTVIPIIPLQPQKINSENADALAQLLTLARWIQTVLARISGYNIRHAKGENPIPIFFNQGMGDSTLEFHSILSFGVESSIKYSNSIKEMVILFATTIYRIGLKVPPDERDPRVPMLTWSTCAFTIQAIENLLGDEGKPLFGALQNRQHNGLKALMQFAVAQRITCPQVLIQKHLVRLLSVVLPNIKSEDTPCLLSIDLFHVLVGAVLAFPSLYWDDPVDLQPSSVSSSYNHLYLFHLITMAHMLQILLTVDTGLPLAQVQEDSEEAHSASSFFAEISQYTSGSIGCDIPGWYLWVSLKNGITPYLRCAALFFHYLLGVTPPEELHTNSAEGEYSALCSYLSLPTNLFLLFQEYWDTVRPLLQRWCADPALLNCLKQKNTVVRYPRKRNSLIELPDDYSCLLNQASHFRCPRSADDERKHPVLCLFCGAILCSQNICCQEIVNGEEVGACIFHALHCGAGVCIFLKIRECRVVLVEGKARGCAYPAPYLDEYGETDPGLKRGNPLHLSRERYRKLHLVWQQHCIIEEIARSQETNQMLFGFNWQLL
UniProt Q8WVY7: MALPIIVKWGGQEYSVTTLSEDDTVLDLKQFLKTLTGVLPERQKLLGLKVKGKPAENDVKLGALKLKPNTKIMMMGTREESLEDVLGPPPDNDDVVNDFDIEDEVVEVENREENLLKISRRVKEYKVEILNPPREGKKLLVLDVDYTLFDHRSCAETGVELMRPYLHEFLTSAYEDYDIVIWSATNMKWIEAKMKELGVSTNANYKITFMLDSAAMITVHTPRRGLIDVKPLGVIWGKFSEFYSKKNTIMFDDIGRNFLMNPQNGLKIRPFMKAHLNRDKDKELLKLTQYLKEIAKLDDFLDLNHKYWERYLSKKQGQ
UniProt P51668: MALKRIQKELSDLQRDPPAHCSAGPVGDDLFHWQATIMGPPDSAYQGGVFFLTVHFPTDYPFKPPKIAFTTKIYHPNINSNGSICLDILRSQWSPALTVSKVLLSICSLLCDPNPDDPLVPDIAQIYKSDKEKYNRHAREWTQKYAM
UniProt Q9HA47: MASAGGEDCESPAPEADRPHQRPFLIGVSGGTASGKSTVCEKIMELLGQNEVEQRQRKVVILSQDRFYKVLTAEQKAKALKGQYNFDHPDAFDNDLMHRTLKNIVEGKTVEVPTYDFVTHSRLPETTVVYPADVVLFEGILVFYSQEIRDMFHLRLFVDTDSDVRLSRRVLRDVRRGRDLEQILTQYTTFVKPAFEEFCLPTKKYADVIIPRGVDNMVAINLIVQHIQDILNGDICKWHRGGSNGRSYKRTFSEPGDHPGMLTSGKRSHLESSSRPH
UniProt P61088: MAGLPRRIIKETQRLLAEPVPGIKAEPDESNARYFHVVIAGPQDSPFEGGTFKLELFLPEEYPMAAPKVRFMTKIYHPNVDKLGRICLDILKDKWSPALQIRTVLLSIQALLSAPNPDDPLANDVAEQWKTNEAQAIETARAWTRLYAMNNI
UniProt P11441: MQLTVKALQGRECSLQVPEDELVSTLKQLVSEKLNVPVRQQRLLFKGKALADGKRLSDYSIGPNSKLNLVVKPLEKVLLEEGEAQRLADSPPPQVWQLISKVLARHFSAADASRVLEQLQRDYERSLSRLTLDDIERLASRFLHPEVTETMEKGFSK
UniProt Q9GZX9: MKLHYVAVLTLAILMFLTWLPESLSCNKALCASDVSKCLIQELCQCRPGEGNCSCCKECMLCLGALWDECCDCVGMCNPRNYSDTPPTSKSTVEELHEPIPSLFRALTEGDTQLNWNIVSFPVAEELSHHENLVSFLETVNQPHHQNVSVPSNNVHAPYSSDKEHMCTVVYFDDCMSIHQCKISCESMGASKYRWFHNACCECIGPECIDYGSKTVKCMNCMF
UniProt Q6IBS0: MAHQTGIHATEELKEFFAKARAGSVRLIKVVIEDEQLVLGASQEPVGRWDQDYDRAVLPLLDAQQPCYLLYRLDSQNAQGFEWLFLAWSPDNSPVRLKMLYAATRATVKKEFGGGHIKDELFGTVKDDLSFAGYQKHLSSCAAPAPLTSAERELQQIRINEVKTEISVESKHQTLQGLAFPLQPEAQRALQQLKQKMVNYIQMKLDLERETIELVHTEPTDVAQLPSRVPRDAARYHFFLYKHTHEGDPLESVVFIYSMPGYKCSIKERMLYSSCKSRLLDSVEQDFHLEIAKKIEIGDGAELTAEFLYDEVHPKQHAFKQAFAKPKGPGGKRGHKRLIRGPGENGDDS
UniProt Q16763: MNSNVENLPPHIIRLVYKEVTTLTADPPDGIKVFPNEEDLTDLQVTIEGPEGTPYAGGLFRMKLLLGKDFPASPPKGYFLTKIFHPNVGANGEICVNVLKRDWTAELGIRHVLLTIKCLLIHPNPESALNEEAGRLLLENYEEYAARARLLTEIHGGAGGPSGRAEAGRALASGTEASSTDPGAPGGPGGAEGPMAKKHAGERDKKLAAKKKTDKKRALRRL

Key:
Assay in all cases: log2 fold change, soluble protein after heating vs DMSO (PISA); higher = thermal stabilisation; K562 lysate, 10 uM; active = over 0.2 and 3.5 SD of the protein, either way, in both replicates (recomputed)
vemurafenib = compound: CCCS(=O)(=O)Nc1ccc(F)c(C(=O)c2c[nH]c3ncc(-c4ccc(Cl)cc4)cc23)c1F [vemurafenib]
Method in brief: (§1)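 To prepare the extract, K562 pellets were dounce-homogenised in PBS pH 7.4 with 1 mM MgCl2, giving crude material at 1 mg/mL protein. This was treated with 10 μM compound for 30 min, then heated in aliquots for 3 min over 48°C-58°C before pooling and addition of NP-40 to 0.5% at 4°C. Centrifugation at 21,000xg for 90 min left soluble protein in the supernatant, which TMTpro 16plex LC-MS/MS quantified with equalised channel sums. Results are log-two fold changes in thermal stability compared with solvent controls, from duplicates.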

[1] = compound: CCCS(=O)(=O)Nc1ccc(F)c(C(=O)c2c[nH]c3ncc(Cl)cc23)c1F
Method in brief: as §1

barasertib = compound: CCN(CCCOc1ccc2c(Nc3cc(CC(=O)Nc4cccc(F)c4)[nH]n3)ncnc2c1)CCOP(=O)(O)O [barasertib]
Method in brief: as §1

[2] = compound: CC[C@@H]1C(=O)N(C)c2cnc(Nc3ccc(C(=O)NC4CCN(C)CC4)cc3OC)nc2N1C1CCCC1
Method in brief: as §1

volasertib = compound: CC[C@@H]1C(=O)N(C)c2cnc(Nc3ccc(C(=O)N[C@H]4CC[C@H](N5CCN(CC6CC6)CC5)CC4)cc3OC)nc2N1C(C)C [volasertib]
Method in brief: as §1

[3] = compound: CCn1c(C(=O)N(C2CC2)C2CC2)cc2c3c(ncn3C)c(Nc3cc(C)n(C)n3)nc21
Method in brief: as §1

[4] = compound: CCn1cc(-c2ccnc3[nH]c(-c4cccc(CN(C)C)c4)cc23)c(-c2ccc(NC(=O)N(C)C)cc2)n1
Method in brief: as §1

[5] = compound: CN1CCC(CNc2ccc3ncc(-c4cccc(OC(F)(F)F)c4)n3n2)CC1
Method in brief: as §1

saracatinib = compound: CN1CCN(CCOc2cc(OC3CCOCC3)c3c(Nc4c(Cl)ccc5c4OCO5)ncnc3c2)CC1 [saracatinib]
Method in brief: as §1

sotrastaurin = compound: CN1CCN(c2nc(C3=C(c4c[nH]c5ccccc45)C(=O)NC3=O)c3ccccc3n2)CC1 [sotrastaurin]
Method in brief: as §1

Measured: log2 fold change

UBE2L6 (UniProt O14933)
inactive: vemurafenib 0.031 | [1] -0.035 | barasertib 0.229 | [2] 0.041 | volasertib 0.008 | [3] 0.022 | [4] 0.037 | [5] -0.115 | saracatinib -0.034 | sotrastaurin -0.03

UBQLN1 (UniProt Q9UMX0)
inactive: vemurafenib 0.013 | [1] 0.011 | barasertib 0.204 | [2] 0.059 | volasertib 0.012 | [3] -0.068 | [4] -0.043 | [5] 0.014 | saracatinib -0.007 | sotrastaurin 0.035

TUBA3C (UniProt P0DPH7)
inactive: vemurafenib 0.037 | [1] 0.021 | barasertib -0.011 | [2] -0.041 | volasertib -0.026 | [3] 0.012 | [4] -0.062 | [5] -0.013 | saracatinib 0.013 | sotrastaurin 0.048

UBR5 (UniProt O95071)
inactive: vemurafenib 0.004 | [1] 0.035 | barasertib 0.045 | [2] 0.006 | volasertib -0.031 | [3] 0.01 | [4] -0.029 | [5] 0.003 | saracatinib 0.019 | sotrastaurin -0.005

TWF1 (UniProt Q12792)
inactive: vemurafenib 0.01 | [1] -0.008 | barasertib -0.032 | [2] -0.056 | volasertib 0.023 | [3] 0.068 | [4] -0.062 | [5] 0.067 | saracatinib -0.046 | sotrastaurin 0.038

U2AF1 isoform 2 (UniProt Q01081)
inactive: vemurafenib 0.007 | [1] 0.062 | barasertib -0.085 | [2] -0.06 | volasertib 0.01 | [3] 0.015 | [4] -0.096 | [5] 0.066 | saracatinib 0.049 | sotrastaurin -0.007

TUBB1 (UniProt Q9H4B7)
inactive: vemurafenib -0.039 | [1] 0.011 | barasertib 0.002 | [2] -0.025 | volasertib -0.087 | [3] 0.034 | [4] 0.15 | [5] -0.025 | saracatinib -0.002 | sotrastaurin -0.045

UBR1 (UniProt Q8IWV7)
inactive: vemurafenib -0.018 | [1] 0.025 | barasertib 0.054 | [2] -0.032 | volasertib -0.07 | [3] 0.03 | [4] -0.046 | [5] -0.038 | saracatinib 0.019 | sotrastaurin 0.004

UBXN6 (UniProt Q9BZV1)
inactive: vemurafenib 0.046 | [1] -0.192 | barasertib -0.007 | [2] -0.025 | volasertib -0.075 | [3] -0.001 | [4] 0.008 | [5] -0.015 | saracatinib -0.03 | sotrastaurin 0.025

UBE2A (UniProt P49459)
inactive: vemurafenib 0.038 | [1] -0.007 | barasertib 0.029 | [2] -0.042 | volasertib -0.014 | [3] 0.035 | [4] 0.072 | [5] -0.06 | saracatinib -0.033 | sotrastaurin -0.022

TUBD1 (UniProt Q9UJT1)
inactive: vemurafenib -0.056 | [1] 0.007 | barasertib -0.391 | [2] -0.066 | volasertib -0.023 | [3] -0.029 | [4] -0.044 | [5] 0.12 | saracatinib 0.015 | sotrastaurin 0.133

TTN isoform 12 (UniProt Q8WZ42)
inactive: vemurafenib 0.117 | [1] 0.057 | barasertib 0.008 | [2] 0.093 | volasertib 0.051 | [3] -0.059 | [4] -0.304 | [5] 0.15 | saracatinib 0.04 | sotrastaurin -0.04

UBE3A (UniProt Q05086)
inactive: vemurafenib 0.038 | [1] 0.018 | barasertib 0.02 | [2] -0.004 | volasertib -0.017 | [3] -0.036 | [4] -0.088 | [5] 0.022 | saracatinib -0.003 | sotrastaurin -0.004

UBLCP1 (UniProt Q8WVY7)
inactive: vemurafenib -0.188 | [1] -0.021 | barasertib -0.032 | [2] -0.025 | volasertib -0.045 | [3] 0.051 | [4] 0.13 | [5] -0.063 | saracatinib -0.026 | sotrastaurin 0.006

TXNDC5 (UniProt Q8NBS9)
inactive: vemurafenib -0.001 | [1] -0.026 | barasertib -0.037 | [2] 0.02 | volasertib 0.02 | [3] -0.018 | [4] -0.016 | [5] 0.022 | saracatinib -0.014 | sotrastaurin -0.014

UBQLN4 (UniProt Q9NRR5)
inactive: vemurafenib -0.014 | [1] 0.023 | barasertib 0.22 | [2] 0.017 | volasertib 0.018 | [3] -0.059 | [4] 0.036 | [5] -0.048 | saracatinib 0.026 | sotrastaurin 0.012

UBR2 isoform 4 (UniProt Q8IWV8)
inactive: vemurafenib -0.025 | [1] 0.016 | barasertib 0.063 | [2] -0.059 | volasertib -0.039 | [3] 0.021 | [4] -0.005 | [5] -0.007 | saracatinib 0.022 | sotrastaurin 0.006

UBE2D1 (UniProt P51668)
inactive: vemurafenib -0.013 | [1] 0.022 | barasertib 0.014 | [2] 0.012 | volasertib -0.046 | [3] 0.089 | [4] 0.007 | [5] -0.025 | saracatinib 0.043 | sotrastaurin -0.021

UCK1 isoform 4 (UniProt Q9HA47)
inactive: vemurafenib 0.001 | [1] -0.01 | barasertib 0.138 | [2] 0.006 | volasertib 0.023 | [3] 0.004 | [4] -0.21 | [5] 0.109 | saracatinib 0.053 | sotrastaurin 0.005

TYW1 (UniProt Q9NV66)
inactive: vemurafenib -0.088 | [1] 0.122 | barasertib 0.118 | [2] 0.135 | volasertib -0.048 | [3] -0.129 | [4] -0.002 | [5] -0.063 | saracatinib 0.04 | sotrastaurin 0.034

UBE3C (UniProt Q15386)
inactive: vemurafenib -0.001 | [1] 0.006 | barasertib 0.016 | [2] -0.021 | volasertib -0.073 | [3] 0.086 | [4] -0.075 | [5] 0.002 | saracatinib 0.04 | sotrastaurin 0.03

UBE2NL (UniProt Q5JXB2)
inactive: vemurafenib -0.016 | [1] -0.035 | barasertib 0.083 | [2] -0.025 | volasertib 0.031 | [3] 0 | [4] -0.006 | [5] -0.004 | saracatinib 0.074 | sotrastaurin -0.036

UBE2E1 (UniProt P51965)
inactive: vemurafenib -0.013 | [1] -0.054 | barasertib -0.039 | [2] -0.064 | volasertib -0.068 | [3] 0.008 | [4] 0.074 | [5] -0.055 | saracatinib 0.024 | sotrastaurin -0.015

UBE2N (UniProt P61088)
inactive: vemurafenib 0.006 | [1] -0.008 | barasertib 0.102 | [2] -0.003 | volasertib 0.026 | [3] 0.012 | [4] 0.061 | [5] 0.033 | saracatinib -0.006 | sotrastaurin -0.062

UBL4A (UniProt P11441)
inactive: vemurafenib -0.032 | [1] -0.001 | barasertib 0.089 | [2] -0.081 | volasertib -0.02 | [3] 0.121 | [5] -0.094 | saracatinib 0.028 | sotrastaurin 0
active: [4] 0.33

TWSG1 (UniProt Q9GZX9)
inactive: vemurafenib -0.046 | [1] -0.008 | barasertib 0.166 | [2] 0.018 | volasertib 0.052 | [3] -0.099 | [4] 0.12 | [5] -0.079 | saracatinib -0.117 | sotrastaurin -0.022

2 successive records out of the list so far, for reference:
UBE2N (UniProt P61088)
inactive: vemurafenib 0.006 | [1] -0.008 | barasertib 0.102 | [2] -0.003 | volasertib 0.026 | [3] 0.012 | [4] 0.061 | [5] 0.033 | saracatinib -0.006 | sotrastaurin -0.062

UBL4A (UniProt P11441)
inactive: vemurafenib -0.032 | [1] -0.001 | barasertib 0.089 | [2] -0.081 | volasertib -0.02 | [3] 0.121 | [5] -0.094 | saracatinib 0.028 | sotrastaurin 0
active: [4] 0.33

Additional results follow:

TUBB6 (UniProt Q9BUF5)
inactive: vemurafenib 0.007 | [1] 0.002 | barasertib -0.015 | [2] 0.003 | volasertib -0.068 | [3] -0.007 | [4] -0.019 | [5] 0.014 | saracatinib 0.032 | sotrastaurin -0.024

TWF2 (UniProt Q6IBS0)
inactive: vemurafenib -0.009 | [1] -0.002 | barasertib -0.015 | [2] 0.018 | volasertib 0 | [3] -0.047 | [4] -0.1 | [5] 0.076 | saracatinib 0.006 | sotrastaurin 0.014

UBE2S (UniProt Q16763)
inactive: vemurafenib 0.016 | [1] 0.019 | barasertib 0.029 | [2] 0.014 | volasertib -0.019 | [3] -0.005 | [4] -0.059 | [5] 0.032 | saracatinib 0.024 | sotrastaurin 0.012
